Test results reported in US20230272050A1 (NAVIGO PROTEINS, published 2023).
Numbering of substitutions follows the chain as printed.

B1: fusion protein 212895 (SEQ ID NO: 29) (designed binder)
chain: AVLDIAQHSATEEIWWLPNLTKQQKVWFIMSLTQDPSVSKEVLGEAQKLNDSQAPKIAAQHDKIQQAADKEILHLPNLTEEQRNKFRQSLRDDPSVSAEILAEAKKLNDAQAPKIAAQHDKIQQAADKEILHLPNLTEEQRNKFRQSLRDDPSVSAEILAEAKKLNDAQAPKIAAQHDKIQQAADKEILHLPNLTEEQRNKFRQSLRDDPSVSAEILAEAKKLNDAQAPKC
B2: fusion protein 212896 (SEQ ID NO: 30) (designed binder)
chain: B1 chain with A6D, S9A, K40L, V42I, G44A, Q47K, S52A
notes: also called Praesto85_212896 (as resin)

Assays:
[1] = target: T1, S1 domain of the spike protein of SARS-Cov-2 (SARS-CoV-2, UniProt P0DTC2 16-685); test: SPR, Biacore 3000
T1 construct: also called S1-His; SARS-CoV2 S1 protein

[2] = target: receptor binding domain (RBD) of the spike protein of SARS-Cov-2 (SARS-CoV-2, UniProt P0DTC2 319-541); test: SPR, Biacore 3000

Binder	on-rate, fold against 212434 [1] [fold lower]	off rate, fold against 212434 (SEQ ID NO: 1) [2] [fold faster]
B1	10	~3
B2	10	~3
